PubChem BioAssay AID686943, Drosophila RNAi Screening Center | 2013
The deposit covers about 23,000 reagents; below is a random part of those with a known target gene and a result. 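Extra replicates exist only for a retested subset of genes; insulin dose and duration not given; both raised and lowered dpERK matter.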 Further read-outs or replicates are left out here. Reagent sequences are not shown. Not given: the amount of reagent, the time to read-out.

- Screen: 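Search across the genome for regulators of signalling from receptor tyrosine kinase to ERK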 (primary screen)
- System: Drosophila S2R+ haemocyte-like cells expressing YFP-tagged ERK (Rolled)
- Knock-down reagent: long dsRNA against Drosophila genes
- Treatment: insulin stimulation versus unstimulated cells; dose and duration not given
- Detection: 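Antibody staining for doubly phosphorylated ERK divided by ERK-YFP signal, as plate z-scores, in insulin-treated and untreated cells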
- Reading the numbers: replicate 1, z-score of dpERK with insulin: higher = more active ERK per ERK-YFP after insulin

CG16736 [DRSC15145]
- replicate 1, z-score of dpERK with insulin: 0.83

DCTN6-p27 (Dynactin 6, p27 subunit) [DRSC02609]
- replicate 1, z-score of dpERK with insulin: 0.68

DCTN6-p27 (Dynactin 6, p27 subunit) [DRSC22810]
- replicate 1, z-score of dpERK with insulin: 0.14

CG13005 [DRSC19524]
- replicate 1, z-score of dpERK with insulin: -0.33

Jupiter [DRSC15204]
- replicate 1, z-score of dpERK with insulin: -1.76

Jupiter [DRSC15205]
- replicate 1, z-score of dpERK with insulin: -0.35

Jupiter [DRSC15389]
- replicate 1, z-score of dpERK with insulin: 0.11

CG7300 [DRSC03044]
- replicate 1, z-score of dpERK with insulin: 0.44

Tg (Transglutaminase) [DRSC03047]
- replicate 1, z-score of dpERK with insulin: -0.63

CG14551 [DRSC14894]
- replicate 1, z-score of dpERK with insulin: -0.05

CanA1 (Calcineurin A1) [DRSC16600]
- replicate 1, z-score of dpERK with insulin: -0.47

CG7924 [DRSC10931]
- replicate 1, z-score of dpERK with insulin: 0.53

abo (abnormal oocyte) [DRSC02926]
- replicate 1, z-score of dpERK with insulin: -0.14

Cpr97Ea (Cuticular protein 97Ea) [DRSC15974]
- replicate 1, z-score of dpERK with insulin: 0.18

Rnb (R and B) [DRSC16325]
- replicate 1, z-score of dpERK with insulin: -1.07

CG13887 [DRSC08357]
- replicate 1, z-score of dpERK with insulin: -0.42

Syx4 (Syntaxin 4) [DRSC18586]
- replicate 1, z-score of dpERK with insulin: 0.66

SelG (Selenoprotein G) [DRSC19808]
- replicate 1, z-score of dpERK with insulin: 0.7

Continued (4 carried over from the part before).
Rnb (R and B) [DRSC16325]
- replicate 1, z-score of dpERK with insulin: -1.07

CG13887 [DRSC08357]
- replicate 1, z-score of dpERK with insulin: -0.42

Syx4 (Syntaxin 4) [DRSC18586]
- replicate 1, z-score of dpERK with insulin: 0.66

SelG (Selenoprotein G) [DRSC19808]
- replicate 1, z-score of dpERK with insulin: 0.7

salt (salty dog) [DRSC15427]
- replicate 1, z-score of dpERK with insulin: 0.51

CG5004 [DRSC19929]
- replicate 1, z-score of dpERK with insulin: 0.09

CG5004 [DRSC19930]
- replicate 1, z-score of dpERK with insulin: -0.66

CG5004 [DRSC20123]
- replicate 1, z-score of dpERK with insulin: 0.39

CG31908 [DRSC21864]
- replicate 1, z-score of dpERK with insulin: 0.16

CG12986 [DRSC19506]
- replicate 1, z-score of dpERK with insulin: 0.21

CG43254 [DRSC12638]
- replicate 1, z-score of dpERK with insulin: 1.17

ND-51L2 (NADH dehydrogenase (ubiquinone) 51 kDa subunit-like 2) [DRSC07080]
- replicate 1, z-score of dpERK with insulin: 0.12

Nf-YB (Nuclear factor Y-box B) [DRSC02057]
- replicate 1, z-score of dpERK with insulin: 0.83

Mcm7 (Minichromosome maintenance 7) [DRSC11219]
- replicate 1, z-score of dpERK with insulin: -0.4

TBC1d7 (TBC1 domain family member 7) [DRSC15985]
- replicate 1, z-score of dpERK with insulin: -1.02

Cyp310a1 (Cytochrome P450 310a1) [DRSC03301]
- replicate 1, z-score of dpERK with insulin: 0.18

LS2 (Large Subunit 2) [DRSC04340]
- replicate 1, z-score of dpERK with insulin: -1.89
